# Test results from patent publication US20230302010A1, “2-((4S)-6-(4-CHLOROPHENYL)-1-METHYL-4H-BENZO[C]ISOXAZOLO[4,5-E]AZEPIN-4-YL)ACETAMIDE FOR TREATING THROMBOCYTHEMIA” (Constellation Pharmaceuticals, Inc., priority 2020, published 2023).
# At least one structure is not confirmed: it was looked up by name or label, or the drawing left a doubt.
# Tests used:
# Format in all cases: cell-based
# [1] = system: IL6 expression in TMD8 ABC-DLBCL cells; test: IL6 mRNA expression in TMD8 cells (qRT-PCR); conditions: 1.6 μM, vs DMSO (FIG. 1)
# [2] = system: IL10 expression in TMD8 ABC-DLBCL cells; test: IL10 mRNA expression in TMD8 cells (qRT-PCR); conditions: 1.6 μM, vs DMSO (FIG. 1)
# [3] = system: CD34+ cells isolated from healthy donor bone marrow; test: Megakaryocyte differentiation of CD34+ cells (FACS, CD41a expression); conditions: 14 days in megakaryocyte differentiation medium, 3 nM to 500 nM
# Description: The effects of Compound 1 on megakaryocyte differentiation and proliferation were evaluated using CD34+ cells isolated from healthy donor bone marrow (data on file). The CD34+ cells were grown in megakaryocyte differentiation serum-free stem cell differentiation base medium with a megakaryocyte-driving cytokine cocktail for 14 days with DMSO or Compound 1 at concentrations ranging from 3 nM to 500 nM. The cells were then stained for CD34 (progenitor marker), CD45 (leukocyte marker) and CD41a (mature megakaryocyte marker) and assessed by FACS for viability and marker expression. CD41a expression and cell size were used as markers of megakaryocyte differentiation. […] The shift from high to low CD41a expression began at approximately 50 nM, with pronounced effects observed at 200 to 500 nM, as shown in FIG. 2.
smiles,measurement,setting,value
"Cc1noc2c1-c1ccccc1C(c1ccc(Cl)cc1)=N[C@H]2CC(N)=O [Compound 1, 2-((4S)-6-(4-chlorophenyl)-1-methyl-4H-benzo[c]isoxazolo[4,5-e]azepin-4-yl)acetamide]",IL6 mRNA transcription,[1]; 6 hours,substantially suppressed
same,IL6 mRNA transcription,[1]; 24 hours,substantially suppressed
same,IL10 mRNA transcription,[2]; 6 hours,substantially suppressed
same,IL10 mRNA transcription,[2]; 24 hours,substantially suppressed
same,number of cells with high CD41a expression,[3],reduced the number of cells with high CD41a expression in a concentration-dependent manner
